The values below come from WO2019006280A1 (dated 2019).

Sequences of proteins named here, by UniProt entry; tags and fusion partners are left off. Residues count along the entry.
UniProt P20138, residues 18-259: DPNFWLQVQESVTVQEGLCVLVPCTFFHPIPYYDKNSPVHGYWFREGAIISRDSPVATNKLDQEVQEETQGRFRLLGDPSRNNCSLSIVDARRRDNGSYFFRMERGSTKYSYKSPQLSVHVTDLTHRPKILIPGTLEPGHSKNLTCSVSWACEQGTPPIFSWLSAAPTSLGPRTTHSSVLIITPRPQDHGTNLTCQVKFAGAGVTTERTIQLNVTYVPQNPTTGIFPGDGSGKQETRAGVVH

These are yes or no findings as the source states them, for the method shown. Some binding calls cover weakened binding; strength is not graded here.

Experiment [1] concerns the target recombinant human CD33 (human) (UniProt P20138). The experiment is described as follows: ELISA. On the technique in general: An ELISA detects its analyte on a solid surface through an enzyme-linked reagent.
For experiment [2] the target is unchanged. The experiment is described as follows: ELISA, purified VH domain on coated recombinant human CD33, HRP anti-Flag.

B1: ml033-2 VH domain antibody (VHH)
VHH: EVQLVESGGGLVQPGGSLRLSCAASGFTFSSYGMSWVRQAPRKGLEWIGEINHSGSTNYNPSLKSRVTISRDNSKNTLYLQMNSLRAEDTATYYCARPLNYYYYYMDVWGKGTTVTVSS
notes: also called single domain antibody ml 033-2; m1033-2; not shown: His and Flag tags
As to B1, the binding entry in experiment [1] and in experiment [2] was “binds” throughout.
